Measured values: the supplement of paper PMC6078165
± gives the standard deviation of the averaged measurements. Values are relative to the signal before dosing, not to a vehicle control; the signal also falls without drug.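 Labels refer to human fibroblasts, largely primary: uterine (C12385, HUF), lung (H6013), bone (Hs27A), adrenal (HADF), skin (WS1), plus mammary HMF and breast cancer-associated Hs343T. Cancer lines are basal-like or mesenchymal-like triple-negative breast cancer. The paper counts as hits responses shifting over 3x the replicate standard deviation. The tissue of the other fibroblasts is not given here.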

System: MDAMB231
Experiment: relative JC-1 red fluorescence (viability) vs pre-drug, coculture with fibroblast (fraction); higher = more viable cancer cells
Experimental: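 JC-1 labelled TNBC cells cocultured 1:1 (1,500 cells each) with CellTrace Violet stained primary or stromal fibroblasts in 384-well plates in FluoroBrite medium, treated with one of 42 anticancer drugs at 0.1, 1, 10 or 100 uM. JC-1 red fluorescence (mitochondrial integrity in cancer cells only) was read by plate reader every 8 h for 72 h. Values are normalised to each well's pre-drug value. The stock of one drug was tenfold lower, so its dose labels may be too high.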

CO[C@H]1C[C@@H]2CC[C@@H](C)[C@@](O)(O2)C(=O)C(=O)N2CCCC[C@H]2C(=O)O[C@H]([C@H](C)C[C@@H]2CC[C@@H](O)[C@H](OC)C2)CC(=O)[C@H](C)/C=C(\C)[C@@H](O)[C@@H](OC)C(=O)[C@H](C)C[C@H](C)/C=C/C=C/C=C/1C [Rapamycin]
relative JC-1 red fluorescence
Conditions | 8 h | 16 h | 24 h | 32 h | 40 h | 48 h | 56 h | 64 h | 72 h
0.1 µM, coculture fibroblast: C12385 | 0.7926 ± 0.002 | 0.742 ± 0.026 | 0.674 ± 0.037 | 0.664 ± 0.039 | 0.619 ± 0.041 | 0.594 ± 0.048 | 0.557 ± 0.046 | 0.559 ± 0.055 | 0.543 ± 0.049
0.1 µM, coculture fibroblast: H6013 | 0.8925 ± 0.0056 | 0.8386 ± 0.0039 | 0.7989 ± 0.007 | 0.789 ± 0.018 | 0.763 ± 0.022 | 0.731 ± 0.025 | 0.729 ± 0.021 | 0.719 ± 0.017 | 0.679 ± 0.02
0.1 µM, coculture fibroblast: H6019 | 0.756 ± 0.029 | 0.706 ± 0.045 | 0.649 ± 0.04 | 0.643 ± 0.042 | 0.594 ± 0.031 | 0.574 ± 0.034 | 0.536 ± 0.05 | 0.54 ± 0.052 | 0.516 ± 0.045
0.1 µM, coculture fibroblast: H6076 | 0.897 ± 0.056 | 0.823 ± 0.038 | 0.773 ± 0.036 | 0.747 ± 0.021 | 0.719 ± 0.019 | 0.692 ± 0.015 | 0.674 ± 0.01 | 0.661 ± 0.013 | 0.654 ± 0.0093
0.1 µM, coculture fibroblast: H6231 | 0.93505 ± 0.00063 | 0.842 ± 0.016 | 0.775 ± 0.042 | 0.724 ± 0.051 | 0.686 ± 0.062 | 0.654 ± 0.062 | 0.616 ± 0.073 | 0.601 ± 0.082 | 0.575 ± 0.086
0.1 µM, coculture fibroblast: HADF | 0.87 ± 0.017 | 0.838 ± 0.036 | 0.801 ± 0.028 | 0.765 ± 0.032 | 0.731 ± 0.034 | 0.681 ± 0.021 | 0.676 ± 0.026 | 0.665 ± 0.032 | 0.627 ± 0.035
0.1 µM, coculture fibroblast: HCFa | 0.8816 ± 0.0044 | 0.833 ± 0.017 | 0.78 ± 0.012 | 0.747 ± 0.017 | 0.7 ± 0.028 | 0.651 ± 0.043 | 0.64 ± 0.032 | 0.617 ± 0.037 | 0.585 ± 0.041
0.1 µM, coculture fibroblast: HCPF | 0.9105 ± 0.0046 | 0.8082 ± 0.0037 | 0.762 ± 0.0079 | 0.729 ± 0.014 | 0.687 ± 0.008 | 0.646 ± 0.0068 | 0.6124 ± 0.0056 | 0.587 ± 0.01 | 0.572 ± 0.014
0.1 µM, coculture fibroblast: HHSteC | 0.904 ± 0.011 | 0.861 ± 0.014 | 0.817 ± 0.023 | 0.771 ± 0.015 | 0.739 ± 0.012 | 0.7078 ± 0.0028 | 0.684 ± 0.011 | 0.661 ± 0.017 | 0.629 ± 0.021
0.1 µM, coculture fibroblast: HMF | 0.9112 ± 0.0021 | 0.831 ± 0.01 | 0.757 ± 0.031 | 0.708 ± 0.041 | 0.665 ± 0.05 | 0.625 ± 0.057 | 0.597 ± 0.062 | 0.575 ± 0.064 | 0.561 ± 0.054
0.1 µM, coculture fibroblast: HPFa | 0.9588 ± 0.0089 | 0.901 ± 0.013 | 0.8333 ± 0.004 | 0.793 ± 0.0092 | 0.771 ± 0.0089 | 0.7246 ± 0.0039 | 0.6853 ± 0.0027 | 0.674 ± 0.013 | 0.643 ± 0.0075
0.1 µM, coculture fibroblast: HUF | 0.853 ± 0.011 | 0.73 ± 0.018 | 0.778 ± 0.072 | 0.651 ± 0.043 | 0.599 ± 0.04 | 0.581 ± 0.045 | 0.535 ± 0.044 | 0.543 ± 0.049 | 0.52 ± 0.044
0.1 µM, coculture fibroblast: Hs5 | 0.886 ± 0.06 | 0.832 ± 0.062 | 0.792 ± 0.054 | 0.755 ± 0.058 | 0.716 ± 0.055 | 0.674 ± 0.06 | 0.642 ± 0.074 | 0.622 ± 0.07 | 0.603 ± 0.067
0.1 µM, coculture fibroblast: Hs27A | 0.875 ± 0.0092 | 0.821 ± 0.024 | 0.778 ± 0.047 | 0.76 ± 0.057 | 0.717 ± 0.061 | 0.639 ± 0.071 | 0.667 ± 0.07 | 0.656 ± 0.075 | 0.621 ± 0.084
0.1 µM, coculture fibroblast: Hs343T | 0.861 ± 0.055 | 0.776 ± 0.054 | 0.735 ± 0.035 | 0.688 ± 0.027 | 0.643 ± 0.013 | 0.6 ± 0.011 | 0.5644 ± 0.0049 | 0.551 ± 0.0091 | 0.536 ± 0.014
0.1 µM, coculture fibroblast: WS1 | 0.75 ± 0.03 | 0.693 ± 0.024 | 0.641 ± 0.034 | 0.605 ± 0.041 | 0.562 ± 0.044 | 0.55 ± 0.047 | 0.519 ± 0.041 | 0.519 ± 0.052 | 0.499 ± 0.044
1 µM, coculture fibroblast: C12385 | 0.76 ± 0.01 | 0.7731 ± 0.0024 | 0.7 ± 0.064 | 0.727 ± 0.021 | 0.689 ± 0.033 | 0.67 ± 0.052 | 0.642 ± 0.066 | 0.64 ± 0.075 | 0.637 ± 0.091
1 µM, coculture fibroblast: H6013 | 0.906 ± 0.031 | 0.887 ± 0.053 | 0.858 ± 0.048 | 0.856 ± 0.069 | 0.828 ± 0.067 | 0.786 ± 0.071 | 0.796 ± 0.072 | 0.778 ± 0.076 | 0.747 ± 0.074
1 µM, coculture fibroblast: H6019 | 0.7662 ± 0.00062 | 0.748 ± 0.013 | 0.745 ± 0.011 | 0.733 ± 0.01 | 0.697 ± 0.014 | 0.7 ± 0.011 | 0.665 ± 0.026 | 0.671 ± 0.043 | 0.655 ± 0.042
1 µM, coculture fibroblast: H6076 | 0.881 ± 0.033 | 0.852 ± 0.029 | 0.8235 ± 0.0072 | 0.813 ± 0.0094 | 0.7914 ± 0.0022 | 0.7587 ± 0.0014 | 0.7407 ± 0.0022 | 0.7368 ± 0.0018 | 0.7438 ± 0.0067
1 µM, coculture fibroblast: H6231 | 0.938 ± 0.014 | 0.888 ± 0.021 | 0.843 ± 0.019 | 0.801 ± 0.024 | 0.764 ± 0.015 | 0.735 ± 0.015 | 0.701 ± 0.017 | 0.689 ± 0.023 | 0.666 ± 0.019
1 µM, coculture fibroblast: HADF | 0.9097 ± 0.0051 | 0.89 ± 0.013 | 0.8588 ± 0.0059 | 0.8391 ± 0.0052 | 0.83 ± 0.0085 | 0.781 ± 0.0089 | 0.7933 ± 0.00086 | 0.791 ± 0.0022 | 0.746 ± 0.015
1 µM, coculture fibroblast: HCFa | 0.901 ± 0.013 | 0.8856 ± 0.0062 | 0.864 ± 0.012 | 0.854 ± 0.016 | 0.824 ± 0.012 | 0.777 ± 0.025 | 0.758 ± 0.029 | 0.74 ± 0.024 | 0.706 ± 0.026
1 µM, coculture fibroblast: HCPF | 0.907 ± 0.062 | 0.888 ± 0.1 | 0.877 ± 0.14 | 0.815 ± 0.068 | 0.726 ± 0.026 | 0.769 ± 0.13 | 0.74 ± 0.14 | 0.66 ± 0.057 | 0.667 ± 0.078
1 µM, coculture fibroblast: HHSteC | 0.9189 ± 0.0074 | 0.8981 ± 0.0074 | 0.8556 ± 0.0026 | 0.8277 ± 0.0029 | 0.795 ± 0.0084 | 0.7682 ± 0.0063 | 0.7432 ± 0.0056 | 0.727 ± 0.02 | 0.704 ± 0.025
1 µM, coculture fibroblast: HMF | 0.884 ± 0.014 | 0.84687 ± 0.00028 | 0.814 ± 0.011 | 0.7872 ± 0.0027 | 0.7618 ± 0.005 | 0.742 ± 0.0082 | 0.7139 ± 0.00072 | 0.701 ± 0.01 | 0.7033 ± 0.0062
1 µM, coculture fibroblast: HPFa | 0.9342 ± 0.0052 | 0.931 ± 0.015 | 0.889 ± 0.014 | 0.852 ± 0.022 | 0.844 ± 0.041 | 0.805 ± 0.043 | 0.769 ± 0.047 | 0.758 ± 0.058 | 0.727 ± 0.056
1 µM, coculture fibroblast: HUF | 0.8357 ± 0.0058 | 0.7786 ± 0.0077 | 0.776 ± 0.029 | 0.715 ± 0.0095 | 0.667 ± 0.0077 | 0.6609 ± 0.00067 | 0.6246 ± 0.00084 | 0.622 ± 0.012 | 0.603 ± 0.01
1 µM, coculture fibroblast: Hs5 | 0.954 ± 0.033 | 0.926 ± 0.033 | 0.88 ± 0.015 | 0.846 ± 0.017 | 0.806 ± 0.033 | 0.763 ± 0.043 | 0.731 ± 0.057 | 0.708 ± 0.067 | 0.699 ± 0.073
1 µM, coculture fibroblast: Hs27A | 0.901 ± 0.016 | 0.8851 ± 0.0015 | 0.8412 ± 0.0031 | 0.837 ± 0.011 | 0.797 ± 0.017 | 0.717 ± 0.019 | 0.75 ± 0.021 | 0.745 ± 0.026 | 0.704 ± 0.027
1 µM, coculture fibroblast: Hs343T | 0.938 ± 0.069 | 0.881 ± 0.065 | 0.822 ± 0.025 | 0.784 ± 0.028 | 0.732 ± 0.032 | 0.698 ± 0.021 | 0.665 ± 0.027 | 0.658 ± 0.044 | 0.645 ± 0.043
1 µM, coculture fibroblast: WS1 | 0.753 ± 0.015 | 0.746 ± 0.023 | 0.679 ± 0.057 | 0.696 ± 0.049 | 0.667 ± 0.053 | 0.649 ± 0.06 | 0.617 ± 0.063 | 0.618 ± 0.066 | 0.604 ± 0.074
